The list shows a part of the results. These are further read-outs of the screen, such as a control signal, another cell line or another target. No call is given for them. The list favours compounds with an active or inconclusive main result. The note in brackets gives the kind of curve behind each potency; many fits are weak.
Assay: qHTS Assay to Find Inhibitors of Chronic Active B-Cell Receptor Signaling
Settings: ABC-DLBCL IkBa-CBG/CBR reporter, luminescence ratio (green luciferase fused to IkBa over red control in TMD8 lymphoma cells), 4 h
How it was run: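 Doxycycline induced both beetle luciferases in TMD8 lymphoma cells; IKK-driven degradation limits the IkappaBalpha-fused green signal, while red luminescence normalises for cell number and nonspecific effects. Compounds tested up to 46 uM, 4 hrs.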

[1] = measured here: CBR red luminescence, cell number
[2] = measured here: IkBa-CBG green luminescence

SMILES	AC50 [1]	AC50 [2]
Cc1cc(=O)n2nc(N3CCCC(C(=O)N4CCN(c5ccccc5)CC4)C3)sc2n1 (stereo not drawn)	3.98 µM [rising, partial curve, poor fit]	–
CCc1nnc(NC(=O)CSc2nnc(-c3ccncc3)n2C)s1	29.1 µM [rising, single point]	–
CN1C(=O)c2cccc(NC(=O)Cc3ccccc3)c2C1=O	9.2 µM [falling, partial curve]	–
CC(C)CNC(=S)NNC(=O)c1ccco1	29.1 µM [falling, single point]	23.1 µM [rising, partial curve, poor fit]
CCC(=NC(CC)CO)C1=C(O)CC(C)(C)CC1=O (stereo not drawn)	14.1 µM [rising, single point]	–
CCN(C(=S)NC(=O)CCc1ccccc1)c1ccccc1	9.2 µM [rising, partial curve, poor fit]	–
CC(=O)Nc1ccccc1NS(=O)(=O)c1ccc(Cl)cc1	32.6 µM [falling, single point]	–
COCCCNC(=O)CN(c1cc(Cl)ccc1OC)S(=O)(=O)c1ccc(C)c([N+](=O)[O-])c1	15.8 µM [falling, partial curve, poor fit]	–
CCOC(=O)c1ccc(COC(=O)CCc2nc3ccccc3[nH]c2=O)o1	2.31 µM [falling, single point]	–
COc1ccccc1Oc1ccc(Oc2ccccc2OC)cc1	11.2 µM [falling, single point]	–
CN(C)/C=C/C(=O)c1ccc(Br)cc1	35.5 µM [rising, single point]	–
CCCOc1ccc(C(=O)NC(=S)Nc2nc(C)c(C(=O)N(C)C)s2)cc1	25.9 µM [rising, partial curve, poor fit]	–
Cc1ccsc1C(=O)OCC(=O)Nc1cccc(S(=O)(=O)N2CCOCC2)c1	4.61 µM [falling, full curve, poor fit]	–
CC1CN(CC(=O)Nc2ccc(Br)cn2)CC(C)O1 (stereo not drawn)	17.8 µM [rising, partial curve, poor fit]	–
Cc1cc(C)c2nc(-c3ccccn3)cc(C(=O)Nc3ccc(S(=O)(=O)Nc4cc(C)on4)cc3)c2c1	35.5 µM [falling, single point]	–
CC(=O)Nc1ccc(NC(=O)C(C)Sc2n[nH]c(-c3ccc(C)cc3)n2)cc1 (stereo not drawn)	32.6 µM [rising, single point]	–
O=C(Nc1ccc(F)cc1F)c1ccc2c(=O)n3c(nc2c1)CCC3	14.6 µM [falling, partial curve]	–
CCOC(=O)C1CCCN(C(=O)c2cc3c(C)nc4ccccc4c3o2)C1 (stereo not drawn)	29.1 µM [falling, single point]	–
O=C(COc1ncnc2scc(-c3ccc(F)cc3)c12)NCc1ccco1	0.00517 µM [rising, full curve, poor fit]	–
CCc1ccc(OCC(=O)NC(C)(C)C)cc1	18.4 µM [rising, partial curve, poor fit]	–
Cn1nc(CC(=O)NCc2cccc3ccccc23)c2ccccc2c1=O	0.259 µM [falling, full curve, poor fit]	–

Record cards (already shown). Values in the order: AC50 [1] | AC50 [2]
`Cn1nc(CC(=O)NCc2cccc3ccccc23)c2ccccc2c1=O` is listed with 0.259 µM [falling, full curve, poor fit] | –
`CCc1nnc(NC(=O)CSc2nnc(-c3ccncc3)n2C)s1` is listed with 29.1 µM [rising, single point] | –

(listing goes on)

SMILES	AC50 [1]	AC50 [2]
CCOc1ccc(NC(=O)CCCc2cc(-c3ccc(OCC)cc3)on2)cc1	3.55 µM [falling, single point]	–
COc1ccc(OC)c2c1sc(=NC(=O)c1cccc(N3C(=O)CCC3=O)c1)n2C	3.66 µM [rising, partial curve, poor fit]	–
CC1=CC(C)(C)n2c(O)c(N=N)c3c(C)ccc1c32	14.1 µM [rising, single point]	–
Cc1ccc2cc(C=O)c(N(C)C)nc2c1	0.259 µM [rising, partial curve, poor fit]	–
CC/C(=N\NC(=O)c1cccnc1)c1ccc2c(c1)OCCO2	17.8 µM [falling, partial curve, poor fit]	–
Cc1csc(NC(=O)c2cc3c(s2)-c2ccccc2OC3)n1	0.92 µM [falling, full curve]	–
C=CCOc1c(Br)cc(/C=N/NC(N)=O)cc1OC	–	23.1 µM [falling, single point]
COc1ccc(-c2nc(N)n(C(=O)c3cccs3)n2)cc1	10 µM [falling, partial curve, poor fit]	4.47 µM [rising, full curve, poor fit]
Cc1cc(C)n2c(SCc3cccs3)nnc2n1	1.46 µM [rising, full curve]	–
COc1ccc(CCn2c(-c3ccco3)nc3nc4ccccc4nc32)cc1	6.51 µM [rising, partial curve, poor fit]	–
O=C(CN1CCN(S(=O)(=O)c2ccc(Br)cc2)CC1)Nc1ccc2c(c1)OCO2	25.1 µM [falling, single point]	–
COc1cc(C2C(C#N)=C(N)N(c3ccc(F)cc3)C3=C2S(=O)(=O)CC3)ccc1O (stereo not drawn)	35.5 µM [falling, single point]	–
O=C(NNC1CC(=O)N(c2ccc(Br)cc2)C1=O)c1ccccn1 (stereo not drawn)	35.5 µM [falling, single point]	–
Cc1cc(N2C(=O)[C@@H]3[C@H](C2=O)[C@@H]2C[C@H]3C(Br)C2Br)no1 (stereo partly drawn)	11.2 µM [falling, partial curve, poor fit]	–
COc1ccc(-c2nn3c(-c4ccccc4)nnc3s2)cc1OC	3.98 µM [rising, full curve]	–
Cc1cccc2nc(CSCc3ccco3)cn12	11.2 µM [rising, partial curve, poor fit]	–
C/C(Cn1cnc([N+](=O)[O-])n1)=N\NC(=O)c1ccccc1	11.6 µM [falling, partial curve]	–
Cc1ccc(NC(=O)CN2C(=O)S/C(=C/c3ccc(-c4cccc(C(=O)O)c4)o3)C2=O)cc1	10 µM [falling, partial curve]	–
Cn1cc(S(=O)(=O)CC(=O)Nc2ccc3c(c2)OCO3)c2ccccc21	32.6 µM [falling, single point]	–
CCN1CCN(Cc2ccc(NC(=O)c3ccc(C)c(NC(=O)c4c[nH]c5cc(C(F)(F)F)ccc5c4=O)c3)cc2C(F)(F)F)CC1	0.794 µM [falling, full curve, poor fit]	–
